# Publication PMC8789930
# No constants are given. Whether binding was seen depends on the method and setting. Binding seen in cells or lysates may run through a third protein. A result given as binding can be weak or reduced; the word gives no strength. Where a sequence is shown, tags or fusion partners need not be part of it.
# Target: T1, HA-USP44 (UniProt Q9H0E7)
# T1 sequence: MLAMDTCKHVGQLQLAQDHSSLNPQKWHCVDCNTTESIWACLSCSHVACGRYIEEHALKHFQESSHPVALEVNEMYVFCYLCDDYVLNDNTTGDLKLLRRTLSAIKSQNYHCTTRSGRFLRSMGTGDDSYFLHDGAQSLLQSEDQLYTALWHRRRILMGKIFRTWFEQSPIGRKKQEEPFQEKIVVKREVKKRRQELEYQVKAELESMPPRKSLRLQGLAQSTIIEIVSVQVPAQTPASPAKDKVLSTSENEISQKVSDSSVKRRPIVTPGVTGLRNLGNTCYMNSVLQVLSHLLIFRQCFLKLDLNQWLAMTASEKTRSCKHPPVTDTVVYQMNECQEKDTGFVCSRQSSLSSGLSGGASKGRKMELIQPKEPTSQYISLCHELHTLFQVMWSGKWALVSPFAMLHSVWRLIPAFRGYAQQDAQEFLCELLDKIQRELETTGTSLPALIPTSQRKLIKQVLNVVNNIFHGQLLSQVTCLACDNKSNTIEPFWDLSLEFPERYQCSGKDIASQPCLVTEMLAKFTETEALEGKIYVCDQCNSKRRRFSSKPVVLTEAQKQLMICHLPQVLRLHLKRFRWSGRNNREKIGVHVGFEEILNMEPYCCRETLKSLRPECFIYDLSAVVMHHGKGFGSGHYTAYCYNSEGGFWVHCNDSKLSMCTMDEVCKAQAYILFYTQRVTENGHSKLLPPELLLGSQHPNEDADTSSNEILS
# Assay: co-IP; truncation co-IP of TRIM25 domains with USP44 (Supplementary Fig. 5a); cells and tags not stated
row,binding,Substance
1,binds,TRIM25 HR1 domain (domain or fragment)
2,no binding,TRIM25 RING finger domain (domain or fragment)
3,binds,TRIM25 PRY/SPRY domain (domain or fragment)
